# At least one structure is not confirmed: it was looked up by name or label, or the drawing left a doubt.
# Experiment: Influence of ultraviolet irradiation on stability (retention rate of CBD)
# Format: physicochemical
# Settings: 6 h under ultraviolet lamp (100 W), room temperature
smiles,measurement,value
"C=C(C)[C@@H]1CCC(C)=C[C@H]1c1c(O)cc(CCCCC)cc1O [unencapsulated CBD, Cannabidiol]",retention rate of CBD,2.49±0.2.34%

# Reference: patent US20250235410A1, “WATER-SOLUBLE CANNABIDIOL MICROCAPSULES AND PREPARATION METHOD THEREOF” (Northeast Agricultural University, priority 2022, published 2025)
